# Taken from: PubChem BioAssay AID504793 (Drosophila RNAi Screening Center, 2011)
# Test: 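Whole-genome screen for parts of the DNA damage checkpoint at G2/M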 (primary screen)
# System: Drosophila S2R+ cells
# Knock-down reagent: long dsRNA against Drosophila genes, about 0.25 µg dsRNA per well
# Timing: 4 days of dsRNA, then 4 hours of drug before read-out
# Challenge: doxorubicin 0.5 µM for 4 hours to cause double-strand breaks, in cells also given a low, harmless dose of dsRNA against nbs to sensitise the assay
# Read-out: 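Mitotic index as the number of phospho-histone H3-positive cells in each well following doxorubicin, given as raw counts without normalisation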
# Scale: mitotic cells: higher = more cells in mitosis, weaker G2 arrest
# Call rule: 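a call needs confirmation in secondary tests, with other dsRNAs and a check of mitotic timing without damage, not just a high primary count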
# Calls: active = confirmed in follow-up tests; inactive = not confirmed
# The deposit covers about 23,000 reagents; this is an unselected part of those with a known target gene and a result. In the full data, 62 (0.27%) got an active call. 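Calls come from follow-up tests whose scores are not deposited, so confirmed genes may have low counts here; counts are not normalised per plate.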 Raw values vary from plate to plate and are shown uncorrected. Names joined by + are all predicted targets of the reagent.
gene,dsRNA,"mitotic cells, replicate 1","mitotic cells, replicate 2",outcome
CG15422,DRSC00436,3,,inactive
CG15422,DRSC25238,7,,inactive
Gem4b + Gem4c + Glos,DRSC18244,7,,inactive
ND-B22 (NADH dehydrogenase (ubiquinone) B22 subunit),DRSC03193,8,,inactive
ND-B22 (NADH dehydrogenase (ubiquinone) B22 subunit),DRSC28526,10,,inactive
Cyp28d1 (Cytochrome P450 28d1),DRSC03298,4,,inactive
Cyp28d1 (Cytochrome P450 28d1),DRSC21331,7,,inactive
Cyp28d1 (Cytochrome P450 28d1),DRSC28292,3,,inactive
"mAChR-A (muscarinic Acetylcholine Receptor, A-type)",DRSC04702,10,,inactive
"mAChR-A (muscarinic Acetylcholine Receptor, A-type)",DRSC28262,7,,inactive
CG17237,DRSC00491,4,,inactive
ApepP (Aminopeptidase P),DRSC01866,7,,inactive
CG8372,DRSC03086,9,,inactive
Pglym87 (Phosphoglyceromutase 87),DRSC15252,4,,inactive
Pglym87 (Phosphoglyceromutase 87),DRSC26066,9,,inactive
CG10969,DRSC09811,6,,inactive
CG10969,DRSC29502,8,,inactive
Ucp4A (Uncoupling protein 4A),DRSC19996,4,,inactive
Ucp4A (Uncoupling protein 4A),DRSC27013,10,,inactive
Hsp70Bb + Hsp70Ba + Hsp70Bbb,DRSC28114,2,,inactive
CG9876,DRSC04586,3,,inactive
CG7694,DRSC16288,6,,inactive
CG12499,DRSC14521,9,,inactive
Ac78C (Adenylyl cyclase 78C),DRSC11467,3,,inactive
Ac78C (Adenylyl cyclase 78C),DRSC11602,9,,inactive
Ac78C (Adenylyl cyclase 78C),DRSC11619,5,,inactive
CG14668,DRSC12254,4,,inactive
abd-A (abdominal A),DRSC13179,5,,inactive
abd-A (abdominal A),DRSC23013,6,,inactive
abd-A (abdominal A),DRSC29065,4,,inactive
GlyRS (Glycyl-tRNA synthetase),DRSC10711,3,,inactive
ssh (slingshot),DRSC16730,6,,inactive
ssh (slingshot),DRSC28782,2,,inactive
Cyp4d21 (Cytochrome P450 4d21),DRSC03305,2,,inactive
Cyp4d21 (Cytochrome P450 4d21),DRSC25622,9,,inactive
CG15141,DRSC02441,4,,inactive
CG15141,DRSC02442,6,,inactive
CG15141,DRSC29031,7,,inactive
CG7849,DRSC04895,10,,inactive
CG7849,DRSC26457,7,,inactive
CG42271,DRSC19809,8,,inactive
CG42271,DRSC22894,6,,inactive
CG42271,DRSC27249,8,,inactive
CG42271,DRSC27338,9,,inactive
CG9175,DRSC03153,5,,inactive
CG16865,DRSC01904,6,,inactive
mahe (maheshvara),DRSC17755,12,,inactive
mahe (maheshvara),DRSC24030,11,,inactive
RNaseP:RNA (Ribonuclease P RNA),DRSC22967,9,,inactive
CG13842,DRSC14692,8,,inactive
CG32201,DRSC22452,15,,inactive
Dlg5 (Discs large 5),DRSC02964,4,,inactive
Dlg5 (Discs large 5),DRSC27257,10,,inactive
Mst27D (Male specific transcript 27D),DRSC00967,11,,inactive
CG14052,DRSC17907,8,,inactive
CG14052,DRSC18192,9,,inactive
CG14052,DRSC25215,4,,inactive
Rpn13R (Regulatory particle non-ATPase 13-related),DRSC18404,18,,inactive
Rpn13R (Regulatory particle non-ATPase 13-related),DRSC23628,9,,inactive
CG1958,DRSC18196,18,,inactive
CG1958,DRSC25599,7,,inactive
ppk29 (pickpocket 29),DRSC04205,3,,inactive
CG3776,DRSC04417,11,,inactive
Mur11Da (Mucin related 11Da),DRSC18960,4,,inactive
Ost48 (Oligosaccharyltransferase 48kD subunit),DRSC18693,9,,inactive
CG15369,DRSC18041,17,,inactive
CG32453,DRSC21673,5,,inactive
CG11360,DRSC17134,13,,inactive
rept (reptin),DRSC11388,42,,active
rept (reptin),DRSC27183,19,,inactive
Xrp1,DRSC15283,10,,inactive
Xrp1,DRSC28718,4,,inactive
Hsp26 (Heat shock protein 26),DRSC11189,5,,inactive
"Prosalpha3T (Proteasome alpha3 subunit, Testis-specific)",DRSC15226,11,,inactive
alphaTub84B (alpha-Tubulin at 84B),DRSC12622,107,,inactive
alphaTub84B (alpha-Tubulin at 84B),DRSC25011,58,,inactive

Looked up above.
CG10969 [DRSC29502], outcome → inactive
For “mitotic cells, replicate 1”, Ac78C (Adenylyl cyclase 78C) [DRSC11602] shows 9
Value of ND-B22 (NADH dehydrogenase (ubiquinone) B22 subunit) [DRSC28526] under “outcome”: inactive
For “mitotic cells, replicate 1”, CG3776 [DRSC04417] has 11
Entry of Mst27D (Male specific transcript 27D) [DRSC00967] in “mitotic cells, replicate 1”: 11
For “outcome”, CG42271 [DRSC27338] is entered as inactive

More records:
gene,dsRNA,"mitotic cells, replicate 1","mitotic cells, replicate 2",outcome
CG33476,DRSC22888,13,,inactive
CG33937 (retired record),DRSC15148,1,,inactive
CG11350,DRSC08181,2,11,inactive
CG11350,DRSC25083,4,,inactive
CG9166,DRSC07842,5,,inactive
CG18641,DRSC00527,11,,inactive
Cpr97Eb (Cuticular protein 97Eb),DRSC15123,11,,inactive
CG3819,DRSC10378,8,,inactive
CG3819,DRSC27675,4,,inactive
Gr64e + Gr64d,DRSC28375,8,,inactive
CG15370,DRSC23277,24,,inactive
CG15370,DRSC29703,7,,inactive
CG31087,DRSC14253,8,,inactive
hh (hedgehog),DRSC16965,4,,inactive
hh (hedgehog),DRSC29242,2,,inactive
hh (hedgehog),DRSC39128,14,,inactive
CG1113,DRSC12163,5,,inactive
Sdr (Secreted decoy of InR),DRSC15517,11,,inactive
Pgam5 (Phosphoglycerate mutase 5),DRSC18551,8,,inactive
CG9436,DRSC05005,9,,inactive
Osi7 (Osiris 7),DRSC12176,13,,inactive
Osi7 (Osiris 7),DRSC27146,3,,inactive
CREG (Cellular Repressor of E1A-stimulated Genes),DRSC16595,6,,inactive
OtopLc (Otopetrin-like c),DRSC18082,5,,inactive
OtopLc (Otopetrin-like c),DRSC18083,11,,inactive
OtopLc (Otopetrin-like c),DRSC18132,7,,inactive
OtopLc (Otopetrin-like c),DRSC25719,4,,inactive
OtopLc (Otopetrin-like c),DRSC25756,2,,inactive
OtopLc (Otopetrin-like c),DRSC28477,1,,inactive
p38a (p38a MAP kinase),DRSC16743,15,,inactive
Sh3beta,DRSC11001,4,,inactive
Sh3beta,DRSC22053,8,,inactive
Sh3beta,DRSC27871,8,,inactive
CG13476,DRSC10019,4,,inactive
CG14797,DRSC17955,12,,inactive
Ts (Thymidylate synthase),DRSC00795,11,,inactive
Ts (Thymidylate synthase),DRSC22168,14,,inactive
Helz (Helicase with zinc finger),DRSC11072,9,,inactive
RpL10Aa (Ribosomal protein L10Aa),DRSC15518,11,,inactive
CG14190,DRSC19545,2,,inactive
CG14190,DRSC27410,7,,inactive
rdgBbeta,DRSC07672,4,,inactive
Tsp42Eh (Tetraspanin 42Eh),DRSC06190,4,,inactive
Ppa (Partner of paired),DRSC04598,5,,inactive
Ppa (Partner of paired),DRSC28700,6,,inactive
y (yellow),DRSC18853,10,,inactive
CG3651,DRSC03730,7,,inactive
sosie,DRSC14636,9,,inactive
sosie,DRSC21382,8,,inactive
sosie,DRSC26930,7,,inactive
CG13724,DRSC10053,4,,inactive
CG13724,DRSC25395,2,,inactive
QIL1,DRSC10888,3,,inactive
PolD2 (DNA polymerase delta subunit 2),DRSC08147,6,,inactive
CG10919,DRSC14283,5,,inactive
CG7579,DRSC10885,4,,inactive
CG31365,DRSC15610,15,,inactive
CG15870,DRSC06588,3,,inactive
CG15870,DRSC26344,4,,inactive
Or2a (Odorant receptor 2a),DRSC18690,11,,inactive
CG14864,DRSC14987,5,,inactive
msl-3 (male-specific lethal 3),DRSC11371,11,,inactive
CG1273,DRSC08291,3,,inactive
CG8468,DRSC07190,10,,inactive
CG8468,DRSC26347,5,,inactive
